{"source": "patent US20130039856A1", "about": "“Products and Methods” (priority 2010, published 2013)", "system": "C. elegans", "assay": "C. elegans lifespan analysis on E. coli plates", "type": "in vivo, Caenorhabditis elegans", "protocol": "Nematode growth media was prepared as described using 2.5 g/l soy peptone (Sigma P6713). Where indicated plates were supplemented with shikimic acid (40 μg/ml), I-phenylalanine, I-tryptophan and I-tyrosine (all at 40 μg/ml), 4-amino benzoic acid (PABA 40 μg/ml=0.29 mM), sodium folate (0.29 mM and 0.58 mM folic acid dissolved in NaOH). For the kanamycin treatment of bacteria, 80 μl of 10 mM kanamycin was added after 24 hours of bacterial growth as described. All compounds were from Sigma-Aldrich.\nFor all lifespans and unless indicated differently in Supplementary Table 1, survival analyses were performed by the following method: Eggs were prepared from bleaching adults to remove all microbes, and then placed onto plates containing aroD mutant bacteria. Animals were raised at 15° C. until adulthood due to the temperature sensitivity of mutant phenotypes. Gravid adulthoods were used to lay eggs onto fresh aroD mutant plates. At L3/L4 these animals were transferred to 25° C. and larvae of equivalent stage were put onto at least 5 plates of 25 worms for each condition. Animals were transferred to fresh plates after 7 and 14 days and scored for survival every 2-3 days. Lifespan data was analysed by JMP statistical software (SAS). Where relevant, statistical significance was determined using the Log-Rank and Wilcoxon tests of fitting to the Kaplan-Meier survival model.", "note": "At least one structure is not confirmed: it was looked up by name or label, or the drawing left a doubt."}
{"smiles": "NC[C@H]1O[C@H](O[C@H]2[C@H](O)[C@@H](O[C@H]3O[C@H](CO)[C@@H](O)[C@H](N)[C@H]3O)[C@H](N)C[C@@H]2N)[C@H](O)[C@@H](O)[C@@H]1O", "note": "[kanamycin]", "values": [{"measurement": "effect of kanamycin treatment of wild-type E. coli on C. elegans lifespan", "setting": "80 μl of 10 mM kanamycin added after 24 hours of bacterial growth", "value": "increased C. elegans lifespan but not to the same degree as the aroD mutant"}, {"measurement": "effect of kanamycin on the ability of the aroD mutant to increase C. elegans lifespan", "setting": "aroD mutant + kanamycin", "value": "did not interfere"}]}
